Measurements reported in PubChem BioAssay AID1259308 (NCATS, 2017).

Assay: 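Knock-downs that increase output of a recombinant reporter protein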 (primary screen)
Cells: human HEK293 embryonic kidney cells stably expressing firefly luciferase (HEK-CMV-Luc2-Hygro)
Knock-down reagent: single siRNA against human genes, 0.8 pmol siRNA per well
Timing: 72 h
Read-out: 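Luciferase light (ONE-Glo) measured on one replicate plate set and viability (CellTiter-Glo) on the other, scaled to a negative control siRNA, with robust z-scores and luciferase per cell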
Direction: total luciferase, z-score and total luciferase, % of control: higher = more reporter protein produced; luciferase per cell, z-score: higher = more reporter output per viable cell; viable cells, % of control: higher = more viable cells
Call rule: 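An siRNA counts as active if its total luciferase robust z-score exceeds 3; genes with two or more such siRNAs out of three were retested with fresh siRNAs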
Meaning of the calls: active = raised luciferase; inactive = no rise
This is one part, drawn at random, of about 59,000 reagents tested. Of all reagents, about 1,510 (2.6%) are marked active. 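Calls use total luciferase alone and ignore viability, so some active siRNAs may act by altering cell number.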 The numbers tell different reagents against one gene apart.

gene knocked down	siRNA no.	total luciferase, z-score	total luciferase, % of control	luciferase per cell, z-score	viable cells, % of control	Call
PTMS (parathymosin)	1	1.2	106	0.664	99.1	inactive
PTMS (parathymosin)	2	0.439	90.6	1.18	74.2	inactive
PTMS (parathymosin)	3	0.931	100	0.525	97.7	inactive
NADK (NAD kinase)	1	0.0733	83.3	-0.25	99.5	inactive
NADK (NAD kinase)	2	-0.16	78.7	-0.0647	89.5	inactive
NADK (NAD kinase)	3	-1.43	53.4	-1.45	87.4	inactive
SPDYC (speedy/RINGO cell cycle regulator family member C)	1	0	81.9	-0.39	101	inactive
SPDYC (speedy/RINGO cell cycle regulator family member C)	2	-1.45	53	0.341	54.1	inactive
SPDYC (speedy/RINGO cell cycle regulator family member C)	3	-0.205	77.8	-0.0105	87.2	inactive
CKLF (chemokine like factor)	1	0.527	92.4	0.239	96.9	inactive
CKLF (chemokine like factor)	2	0.114	84.2	-0.142	97.6	inactive
CKLF (chemokine like factor)	3	1.18	105	0.827	94.7	inactive
MYBPC2 (myosin binding protein C2)	1	2.66	135	2.3	82.2	inactive
MYBPC2 (myosin binding protein C2)	2	0.0436	82.8	0.537	80.3	inactive
MYBPC2 (myosin binding protein C2)	3	-0.277	76.4	-0.556	98.8	inactive
CCDC34 (coiled-coil domain containing 34)	1	-2.13	39.5	-1.53	66.2	inactive
CCDC34 (coiled-coil domain containing 34)	2	0.83	98.4	0.0661	108	inactive
CCDC34 (coiled-coil domain containing 34)	3	0.2	85.9	0.428	85.7	inactive
ACP7 (acid phosphatase 7, tartrate resistant (putative))	1	-0.93	63.4	-0.565	82.2	inactive
ACP7 (acid phosphatase 7, tartrate resistant (putative))	2	-1.48	52.4	-2.27	107	inactive
ACP7 (acid phosphatase 7, tartrate resistant (putative))	3	-1.74	47.3	-1.02	69.2	inactive
PCDHB10 (protocadherin beta 10)	1	-0.261	76.7	-0.0447	86.7	inactive
PCDHB10 (protocadherin beta 10)	2	-0.227	77.4	-0.256	92.5	inactive
PCDHB10 (protocadherin beta 10)	3	-0.396	74	-0.496	94.2	inactive
ACTG1P20 (actin gamma 1 pseudogene 20)	1	1.88	119	1.41	92	inactive
ACTG1P20 (actin gamma 1 pseudogene 20)	2	1.43	110	1.54	82.2	inactive
ACTG1P20 (actin gamma 1 pseudogene 20)	3	1.24	107	1.42	81.8	inactive
KIRREL2 (kirre like nephrin family adhesion molecule 2)	1	1.21	106	0.431	106	inactive
KIRREL2 (kirre like nephrin family adhesion molecule 2)	2	0.021	82.3	0.525	80.1	inactive
KIRREL2 (kirre like nephrin family adhesion molecule 2)	3	1.61	114	1.04	96.9	inactive
IGFBP7 (insulin like growth factor binding protein 7)	1	0.165	85.2	0.31	87.7	inactive
IGFBP7 (insulin like growth factor binding protein 7)	2	-0.782	66.3	-0.713	89.4	inactive
IGFBP7 (insulin like growth factor binding protein 7)	3	-0.415	73.6	-0.249	87.8	inactive
SLC10A4	1	-1.51	51.8	-0.851	72.4	inactive
SLC10A4	2	0.211	86.1	-0.621	113	inactive
SLC10A4	3	1.35	109	0.771	99.2	inactive
PARP4 (poly(ADP-ribose) polymerase family member 4)	1	0.193	85.7	-0.00314	95.9	inactive
PARP4 (poly(ADP-ribose) polymerase family member 4)	2	0.436	90.6	-0.277	109	inactive
PARP4 (poly(ADP-ribose) polymerase family member 4)	3	-0.576	70.4	-0.1	80.8	inactive
MCUR1 (mitochondrial calcium uniporter regulator 1)	1	1.18	105	2.07	68.2	inactive
MCUR1 (mitochondrial calcium uniporter regulator 1)	2	0.367	89.2	1.01	76.5	inactive
MCUR1 (mitochondrial calcium uniporter regulator 1)	3	-2.42	33.7	-3.42	92.7	inactive
BEST4 (bestrophin 4)	1	1.37	109	0.968	94.4	inactive
BEST4 (bestrophin 4)	2	1.24	106	1.14	88.2	inactive
BEST4 (bestrophin 4)	3	4.16	165	2.76	88.9	active
DENND1B (DENN domain containing 1B)	1	0.443	90.7	0.429	90.5	inactive
DENND1B (DENN domain containing 1B)	2	1.37	109	0.793	99	inactive
DENND1B (DENN domain containing 1B)	3	-1.84	45.2	-1.54	75.8	inactive
DENND1B (DENN domain containing 1B)	4	2.57	133	1.88	90.5	inactive
DENND1B (DENN domain containing 1B)	5	-0.295	76	-0.0822	86.8	inactive
DENND1B (DENN domain containing 1B)	6	-1.56	50.8	-0.814	70.4	inactive
TSPOAP1 (TSPO associated protein 1)	1	-0.875	64.5	-1.32	102	inactive
TSPOAP1 (TSPO associated protein 1)	2	-1.96	42.8	-2.27	87	inactive
TSPOAP1 (TSPO associated protein 1)	3	0.459	91	-0.454	115	inactive
KRT34 (keratin 34)	1	0.228	86.4	0.484	85	inactive
KRT34 (keratin 34)	2	-0.418	73.6	-0.668	98	inactive
KRT34 (keratin 34)	3	0.378	89.4	-0.421	112	inactive

Only “total luciferase, z-score”, for 2 of the entries above:
ACP7 (acid phosphatase 7, tartrate resistant (putative)) #3 = -1.74
PCDHB10 (protocadherin beta 10) #1 = -0.261
